Test results reported in the supplement of paper PMC12823440, “Inhibitors supercharge kinase turnover through native proteolytic circuits” (Nature, 2025).
The list shows a part of the results. Hit calls seldom repeat between salt and free forms of one compound.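 Kinases, fused to nanoluciferase, were expressed in K562 cells; luminescence was measured every 4 h from 2 to 18 h as percent of control (DMSO = 100%, positive control = 0%). A time point is decreased if signal falls significantly (2 sigma). Hits were called by the authors by a rule that is not shown; the count of time points alone does not decide it.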

Biological target: EGFR_G719S (UniProt P00533)
Experiment: kinase-Nluc reporter destabilization hit call (1 = scored as downregulated) (binary); higher = compound decreases kinase abundance
Settings: K562; 2-18 h

kinase-Nluc reporter destabilization hit call, inactive:
O=c1cc(-c2ccc(O[C@@H]3O[C@H](CO)[C@@H](O)[C@H](O)[C@H]3O)cc2)oc2cc(O)c([C@@H]3O[C@H](CO)[C@@H](O)[C@H](O)[C@H]3O[C@@H]3OC[C@H](O)[C@H](O)[C@H]3O)c(O)c12 [Vaccarin] (10 µM) 0
O=CN1CCN(c2ccc(C=C3C(=O)Nc4ccccc43)cc2)CC1 (10 µM) 0
COc1ccc(Cl)cc1N(CC(=O)Nc1ccc2c(c1)OCO2)S(=O)(=O)c1ccccc1 (2.5 µM) 0
CCc1c(C(=O)NNC(=O)[C@H](O)c2cc(F)cc(F)c2)ccc(O)c1C (10 µM) 0
CN(C)CCn1cc2cc(NC(=O)c3cccc(C(F)(F)F)n3)c(C(C)(C)O)cc2n1 (10 µM) 0
CCC[C@H](C)Oc1nc(N)c2[nH]c(=O)n(CCCCCN3CCCCC3)c2n1 (10 µM) 0
CCOC(=O)c1c(C)[nH]c(C=C2C(=O)Nc3ccccc32)c1C (10 µM) 0
Cc1ccc(NC(=O)N2CCN(c3nc(N)nc4sc(-c5cccnc5)nc34)CC2)cc1 [PI4KIII beta inhibitor 3] (10 µM) 0
CS[C@@]1(C(=O)Nc2ccc3[nH]nc(-c4ccc(OC(C)C)nc4)c3c2)CCN(CC(=O)N2CC=C(c3ccc(-c4ncn(C)n4)cc3)CC2)C1 (2.5 µM) 0
O=C(Nc1ccc(Cl)cc1)C1CN(C(=O)c2cccc(-c3ccco3)c2)CC(F)(F)C1 (stereo unspecified) (2.5 µM) 0
Nc1ccc(Sc2nc3ccccc3s2)c(Cl)c1 [KRAS inhibitor-9] (10 µM) 0

A run of entries taken from the entries so far, as a working copy:
kinase-Nluc reporter destabilization hit call, inactive:
CCOC(=O)c1c(C)[nH]c(C=C2C(=O)Nc3ccccc32)c1C (10 µM) 0
Cc1ccc(NC(=O)N2CCN(c3nc(N)nc4sc(-c5cccnc5)nc34)CC2)cc1 [PI4KIII beta inhibitor 3] (10 µM) 0
